Source: PubChem BioAssay AID540276 (National Center for Advancing Translational Sciences (NCATS), 2011)
In all, about 300,000 compounds went through this assay and about 5,400 (1.8%) were called active. This list was built around the results that the source calls inconclusive (neither active nor inactive); the mix of calls is not that of the screen. The call rests on the fitted dose curve; tested in HEK293 cells. Where the call is inconclusive, the potency comes from a doubtful curve fit.
On the % scale 0 is the no-effect control and ±100 the full control effect; potency means the concentration at half of the fitted maximal effect.

Test: qHTS for inhibitors of binding or entry into cells for Marburg Virus
Conditions: Marburg virus pseudotyped entry inhibition, cell reporter; activity change, negative = inhibition: at 37.8 µM (top of the series) unless noted
For `N#CCCN1CCCc2cc(N=Nc3ccc(C(F)(F)F)cc3)ccc21`, the Potency was inconclusive: 3.16 µM [activator, single point]. In the case of `CSc1nc(-c2ccc(Cl)cc2)nn1S(=O)(=O)c1ccc(Cl)cc1`, the Potency is reported as inconclusive: 10 µM [activator, partial curve, poor fit]. With `CC(C)OCCCNC(=O)c1c(N)n(/N=C/c2cccs2)c2nc3ccccc3nc12` the Potency was inconclusive: 7.08 µM [inhibitor, partial curve, poor fit]. With `O=C(CSc1nnc(-c2ccncc2)o1)N1CCCC1` the “activity change, negative = inhibition” value was inactive: -0.234% [at 46.1 µM]. For `O=C1c2[nH]nc(-c3ccccc3O)c2C(c2cccc(Cl)c2)N1Cc1ccco1` (stereo not given), the Potency was active: 13 µM. With `CCN(CC)c1ccc(NC(=O)c2cncc(Br)c2)cc1` the “activity change, negative = inhibition” value was inactive: 3.96% [at 46.1 µM]. For `CCc1ccc(C2NC(=O)c3ccccc3O2)cc1` (stereo not given), the Potency was inconclusive: 7.94 µM [activator, partial curve, poor fit]. With `CCOc1ccc(-c2cc(N)n(S(=O)(=O)c3ccc(OC)c(OC)c3)n2)cc1` the “activity change, negative = inhibition” value was inactive: 0.624%. In the case of `CCn1c(CN2CCC(C)CC2)nc2cc(NC(=O)COc3ccc([N+](=O)[O-])cc3)ccc21`, the “activity change, negative = inhibition” value is reported as inactive: -27.3% [at 46.1 µM]. With `c1ccc(SCc2cn3cccnc3n2)nc1` the Potency was inconclusive: 14.1 µM [activator, single point]. In the case of `CCN(CC)CC(=O)N1c2ccccc2CCc2ccc(NC(=O)c3cc(OC)c(OC)c(OC)c3)cc21`, the Potency is reported as inconclusive: 10 µM [inhibitor, partial curve, poor fit]. For `CCCOP(=O)(OCCC)C1(Nc2ccc(C)cc2)CCCCC1`, the Potency was inconclusive: 28.2 µM [inhibitor, single point]. For `COc1ccnc(Oc2ccccc2)c1C(=O)N/C=N/OCc1ccccc1F`, the “activity change, negative = inhibition” value was inactive: 6.43% [at 46.1 µM]. For `Cc1cccc(/C=N/NC(=O)c2ccccc2OCc2cccc(Br)c2)n1`, the Potency was inconclusive: 20 µM [inhibitor, partial curve, poor fit]. With `COc1cccc(CN(CC2CCCO2)S(=O)(=O)c2ccc(-n3cnnn3)c(OC)c2)c1` (stereo not given) the “activity change, negative = inhibition” value was inactive: 3.11% [at 46.1 µM]. With `COc1ccc(C(=O)N2CCN(c3cnn(-c4ccccc4)c(=O)c3Cl)CC2)cc1` the “activity change, negative = inhibition” value was inactive: 6.85% [at 46.1 µM]. For `Cc1ccccc1NC(=O)c1cccc(NC(=O)CCC(=O)O)c1`, the Potency was inconclusive: 10 µM [activator, partial curve, poor fit]. With `CN=C(N)NCCC[C@H](N)C(=O)O` the Potency was inconclusive: 35.5 µM [inhibitor, single point]. With `Cc1ccc(OCCn2nnc3sc4c(c3c2=O)CCC(C(C)(C)C)C4)cc1` (stereo not given) the “activity change, negative = inhibition” value was inactive: 18% [at 46.1 µM]. For `O=C(c1cnn2c(C(F)F)cc(-c3ccccc3)nc12)N1CCc2ccccc21`, the Potency was inconclusive: 2.82 µM [inhibitor, single point]. With `COc1ccc(CNC(=O)c2coc(=O)c3ccccc23)cc1` the Potency was inconclusive: 7.08 µM [inhibitor, partial curve, poor fit]. In the case of `Cc1nn(CC(=O)NCCCN2CC(C)CC(C)C2)c(=O)c2cccn12` (stereo not given), the Potency is reported as inconclusive: 2.82 µM [activator, partial curve]. For `Cc1[nH]c2ccccc2c1C(=O)CSc1cccc[n+]1[O-]`, the “activity change, negative = inhibition” value was inactive: -2.28% [at 46.1 µM]. In the case of `CCN(CC)c1ccc(/C=N/NC(=O)c2nnn(-c3nonc3N)c2C(C)C)c(O)c1`, the Potency is reported as active: 2.51 µM. For `CCOC(=O)c1oc2ccccc2c1CSc1nnnn1-c1ccc(C)cc1`, the Potency was inconclusive: 25.9 µM [inhibitor, single point]. In the case of `Cc1ccc2nc(N(CCCN(C)C)C(=O)c3ccc(Br)s3)sc2c1`, the Potency is reported as inconclusive: 14.1 µM [inhibitor, partial curve, poor fit]. With `CC12C=CC(=O)C=C1CCC1C3CCC(O)(C(=O)CO)C3(C)CC(O)C12F` (stereo not given) the “activity change, negative = inhibition” value was inactive: 22%. For `O=C(O)/C=C/c1ccc2ccccc2n1`, the Potency was inconclusive: 0.231 µM [inhibitor, full curve, poor fit]. With `CN1CCN(c2ccccc2NC(=O)c2ccc(-c3ccc(Br)cc3)o2)CC1` the Potency was inconclusive: 10 µM [inhibitor, partial curve, poor fit]. For `COc1ccc(CCN=C(N)NS(=O)(=O)c2ccccc2)cc1`, the Potency was inconclusive: 2.51 µM [activator, partial curve]. In the case of `O=c1[nH]c(N/N=C/c2ccc(O)cc2)nc2ccccc12`, the Potency is reported as inconclusive: 31.6 µM [inhibitor, single point]. With `CC(=O)Nc1ccc(NC(=O)C(C)OC(=O)c2ccc(-n3cnnn3)cc2)cc1` (stereo not given) the “activity change, negative = inhibition” value was inactive: -16.1%. With `Cc1cccc(C)c1NC(=S)NN1CCN(C)CC1` the “activity change, negative = inhibition” value was inactive: -0.0529% [at 46.1 µM]. For `Cn1cnnc1Sc1ccc(C(=O)OCC(=O)NC2CC2)cc1[N+](=O)[O-]`, the Potency was inconclusive: 4.47 µM [activator, single point]. For `O=C(Nc1ccc(F)cc1F)N1CCN(CCc2ccccc2)CC1`, the “activity change, negative = inhibition” value was inactive: 1.84% [at 46.1 µM]. With `NS(=O)(=O)c1cccc(NC(=O)CSc2nn(-c3ccccc3)c(=S)s2)c1` the Potency was inconclusive: 35.5 µM [inhibitor, single point]. With `O=C(COc1ccccc1[N+](=O)[O-])NCC1(N2CCOCC2)CCCCC1` the Potency was inconclusive: 35.5 µM [inhibitor, single point]. With `COc1cccc(CNc2ccccn2)c1O` the Potency was inconclusive: 35.5 µM [activator, single point]. With `COc1ccc(NC(=O)CCNS(=O)(=O)c2cccc3nsnc23)cc1OC` the Potency was inconclusive: 1.26 µM [activator, partial curve, poor fit]. For `COc1ccc(N(Cc2ccccc2)C(=O)c2nc(SC)ncc2Cl)cc1`, the Potency was inconclusive: 1 µM [inhibitor, full curve, poor fit]. With `O=C(COc1ccccc1F)Nc1ccc2c(c1)CCC2` the Potency was inconclusive: 0.251 µM [activator, partial curve, poor fit]. In the case of `COc1ccc(N(CC(=O)NCC2CCCO2)C(=O)CCC(=O)Nc2cc(C)on2)cc1OC` (stereo not given), the Potency is reported as inconclusive: 4.47 µM [inhibitor, single point]. With `CC(C)Cn1c(-c2csc(C(C)C)c2)n[nH]c1=S` the Potency was inconclusive: 0.82 µM [activator, partial curve, poor fit]. For `Nn1c(COc2ccccc2F)nnc1SCC(=O)NC1CC1`, the “activity change, negative = inhibition” value was inactive: 18.1%. For `N#CC(C#N)=Cc1ccc(C=C(C#N)C#N)cc1`, the Potency was inconclusive: 35.5 µM [activator, single point].
